We go through five molecules from publication PMC4778017.

Sequences of proteins named here, by UniProt entry; tags and fusion partners are left off. A change or cut given only in a name is not applied to a line headed by its entry. A line that says so, or that is headed by a name, gives the form on record, which may keep a tag or linker.
chicken β-sarcoglycan (A0A8V0YPW9, form named): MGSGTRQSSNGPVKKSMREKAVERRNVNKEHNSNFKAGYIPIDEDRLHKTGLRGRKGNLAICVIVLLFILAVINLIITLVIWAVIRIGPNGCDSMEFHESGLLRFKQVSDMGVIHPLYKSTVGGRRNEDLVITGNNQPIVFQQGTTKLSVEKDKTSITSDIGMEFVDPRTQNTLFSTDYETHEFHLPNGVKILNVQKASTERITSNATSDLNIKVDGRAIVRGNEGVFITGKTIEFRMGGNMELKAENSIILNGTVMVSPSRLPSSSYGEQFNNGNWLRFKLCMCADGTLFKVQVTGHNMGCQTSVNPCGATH

Results are given in words; binding and its absence hold for the method and conditions named. Some entries that bind do so weakly or less than the wild type.

Assay [1] addresses T1, chicken BetaM (chicken) (UniProt Q2HZ96).
T1 sequence: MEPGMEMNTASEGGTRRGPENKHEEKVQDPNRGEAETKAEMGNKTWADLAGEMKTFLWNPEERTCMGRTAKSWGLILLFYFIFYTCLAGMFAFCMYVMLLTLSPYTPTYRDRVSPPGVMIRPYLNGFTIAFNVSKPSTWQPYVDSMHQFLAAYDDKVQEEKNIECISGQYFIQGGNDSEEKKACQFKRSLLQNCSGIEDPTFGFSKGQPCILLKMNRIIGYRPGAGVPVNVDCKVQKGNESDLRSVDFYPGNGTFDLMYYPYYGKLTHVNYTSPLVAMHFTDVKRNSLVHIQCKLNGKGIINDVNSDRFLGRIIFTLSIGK
Briefly: two-hybrid; chicken homologs of the interactors tested cross-wise with chicken and mouse BetaM and the mouse interactors, by the criteria of the library screening.

The target of assay [2] is T2, full-length mouse BetaM (ATP1B4), GAL4 DNA binding domain bait (mouse) (UniProt Q99ME6).
T2 sequence: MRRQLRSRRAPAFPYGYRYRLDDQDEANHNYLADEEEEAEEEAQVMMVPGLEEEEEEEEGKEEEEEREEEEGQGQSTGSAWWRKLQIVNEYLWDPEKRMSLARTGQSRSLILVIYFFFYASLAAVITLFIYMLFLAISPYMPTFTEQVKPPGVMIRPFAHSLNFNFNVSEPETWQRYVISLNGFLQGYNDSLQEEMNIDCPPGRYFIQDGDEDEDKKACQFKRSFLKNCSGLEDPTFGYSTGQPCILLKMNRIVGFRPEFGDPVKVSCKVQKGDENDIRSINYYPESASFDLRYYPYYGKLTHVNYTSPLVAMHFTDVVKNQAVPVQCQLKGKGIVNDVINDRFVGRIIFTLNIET
Briefly: two-hybrid; GAL4 yeast two-hybrid screen of a pretransformed 17 day mouse embryo cDNA library (Y187) with full-length mouse BetaM bait in AH109; mating, SD/-Trp/-Leu/-His 5 days at 30 °C, then SD/-Ade/-Trp/-Leu/-His with α-X-Gal; confirmed by co-transformation and mating with isolated prey plasmids.

In the case of “chicken β-sarcoglycan (from UniProt A0A8V0YPW9 1-313)”, in assay [1], the binding entry was “binds”.

B1: Heme oxidase 2/HMOX2 prey (protein, UniProt O70252 1-315)
chain: MSSEVETSEGVDESEKNSMAPEKENHTKMADLSELLKEGTKEAHDRAENTQFVKDFLKGNIKKELFKLATTALYFTYSALEEEMDRNKDHPAFAPLYFPTELHRKAALIKDMKYFFGENWEEQVKCSEAAQKYVDRIHYVGQNEPELLVAHAYTRYMGDLSGGQVLKKVAQRALKLPSTGEGTQFYLFEHVDNAQQFKQFYRARMNALDLNLKTKERIVEEANKAFEYNMQIFSELDQAGSMLARETLEDGLPVHDGKGDIRKCPFYAAQPDKGTLGGSNCPFQTTVAVLRKPSLQLILAASVALVAGLLAWYYM
In the case of B1, in assay [2], the binding result is recorded as “binds”.

B2: PHF3 prey, residues 168-397 (N-term. truncated) (domain or fragment, UniProt B2RQG2 168-397)
chain: SKVGVKPAERCQGKEEVYASLKSEHPKESRRSGRHAEQMDVAPEVSASSVDSSVSSCAGMKEEAEFDPKHACNNQGEVNVPSPELDCPLLSETSASVEEKNIEALMECKAKTNSSPLFKFPVREDEQSDLVSGELNDTIEGKDAGGKPDQESEEVKFPCEGDQTAEEPESSDVSSDSACANKNKAEKNEGAECHLELKNTVDIVDKPENSPQRNELETLGYGEDTESNDA
On to B2, for which the binding result in assay [2] is listed as “binds”.

B3: LZIP/CREB3 prey, residues 226-402 (domain or fragment, UniProt Q61817 226-402)
chain: ELQNKVQRLEEQNLSLLDQLRKLQAMVIEIANKTSSGSTCVLVLVFSFCLLLVPAMYSSDARGSVPAEYVVLHRKLRALPSEDDHQPKPSALSSELPMDSTHQSLDSSEHMFLVSSNFSCVLYHAPQAEQPLHWPLWDLSSEMLFSDSNLLLQANLSESEGWQPNHSPSLVIFQGRY
Regarding B3, in assay [2], the binding result is “binds”.

B4: Reticulocalbin 3/RCN3 prey (protein, UniProt Q8BH97 1-328)
chain: MMWRWSFLLLLLLLRHWALGKPSPDAGPHGQDRVHHGTPLSEAPHDDAHGNFQYDHEAFLGRDVAKEFDKLSPEESQARLGRIVDRMDLAGDSDGWVSLAELRAWIAHTQQRHIRDSVSAAWHTYDTDRDGRVGWEELRNATYGHYEPGEEFHDVEDAETYKKMLARDERRFRVADQDGDSMATREELTAFLHPEEFPHMRDIVVAETLEDLDKNKDGYVQVEEYIADLYSEEPGEEEPAWVQTERQQFREFRDLNKDGRLDGSEVGYWVLPPSQDQPLVEANHLLHESDTDKDGRLSKAEILSNWNMFVGSQATNYGEDLTRHHDEL
For the molecule B4, the binding result in assay [2] is on record as “binds”.
